Consider 14 targets from the supplement of paper PMC12067093, “Discovery and optimisation of a covalent ligand for TRIM25 and its application to targeted protein ubiquitination” (Chemical Science, 2025).

The chains behind the UniProt entries cited, without tags or fusion partners. Where a name states a change or a piece, a line headed by the entry shows the natural chain unless it says otherwise.
UniProt P48449: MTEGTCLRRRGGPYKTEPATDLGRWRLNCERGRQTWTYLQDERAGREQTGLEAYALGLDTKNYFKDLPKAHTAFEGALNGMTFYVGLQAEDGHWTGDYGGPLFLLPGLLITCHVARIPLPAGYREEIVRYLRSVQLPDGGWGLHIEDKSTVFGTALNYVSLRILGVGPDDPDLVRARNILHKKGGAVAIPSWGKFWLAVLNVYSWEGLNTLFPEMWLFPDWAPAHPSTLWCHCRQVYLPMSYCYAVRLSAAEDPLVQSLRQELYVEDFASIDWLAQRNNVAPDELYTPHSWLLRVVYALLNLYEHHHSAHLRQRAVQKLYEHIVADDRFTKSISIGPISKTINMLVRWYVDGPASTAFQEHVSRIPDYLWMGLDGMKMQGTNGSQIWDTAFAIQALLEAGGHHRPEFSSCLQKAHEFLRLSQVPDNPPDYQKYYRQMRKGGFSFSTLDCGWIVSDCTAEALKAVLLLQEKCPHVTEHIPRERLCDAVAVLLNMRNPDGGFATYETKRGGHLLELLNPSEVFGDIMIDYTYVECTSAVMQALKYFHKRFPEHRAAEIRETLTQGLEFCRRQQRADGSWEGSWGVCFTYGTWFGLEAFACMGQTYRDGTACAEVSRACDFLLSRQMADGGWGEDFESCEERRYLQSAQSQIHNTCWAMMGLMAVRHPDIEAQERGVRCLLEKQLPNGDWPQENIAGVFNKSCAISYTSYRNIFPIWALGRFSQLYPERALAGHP
UniProt Q9Y4Z0: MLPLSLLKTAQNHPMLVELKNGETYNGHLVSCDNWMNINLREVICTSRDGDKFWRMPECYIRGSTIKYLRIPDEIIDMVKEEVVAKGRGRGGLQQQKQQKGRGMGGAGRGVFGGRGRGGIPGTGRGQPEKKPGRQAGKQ
UniProt Q93052: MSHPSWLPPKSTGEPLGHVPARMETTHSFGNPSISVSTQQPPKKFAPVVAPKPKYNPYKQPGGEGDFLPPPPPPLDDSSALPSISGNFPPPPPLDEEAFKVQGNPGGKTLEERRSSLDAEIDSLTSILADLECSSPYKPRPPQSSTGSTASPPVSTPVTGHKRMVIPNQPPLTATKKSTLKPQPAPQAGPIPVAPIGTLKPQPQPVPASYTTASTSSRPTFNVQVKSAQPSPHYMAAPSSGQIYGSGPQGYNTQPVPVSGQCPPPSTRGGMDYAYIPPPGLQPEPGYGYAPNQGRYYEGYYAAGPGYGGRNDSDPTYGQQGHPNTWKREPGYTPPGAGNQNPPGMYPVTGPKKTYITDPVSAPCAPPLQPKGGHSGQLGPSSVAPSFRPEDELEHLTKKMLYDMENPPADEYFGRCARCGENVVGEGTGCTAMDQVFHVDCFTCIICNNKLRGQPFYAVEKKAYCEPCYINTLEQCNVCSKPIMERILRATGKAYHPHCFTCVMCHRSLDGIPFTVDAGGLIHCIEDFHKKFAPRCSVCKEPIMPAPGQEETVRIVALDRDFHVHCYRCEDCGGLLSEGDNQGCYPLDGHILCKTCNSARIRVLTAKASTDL
UniProt Q7L5N7: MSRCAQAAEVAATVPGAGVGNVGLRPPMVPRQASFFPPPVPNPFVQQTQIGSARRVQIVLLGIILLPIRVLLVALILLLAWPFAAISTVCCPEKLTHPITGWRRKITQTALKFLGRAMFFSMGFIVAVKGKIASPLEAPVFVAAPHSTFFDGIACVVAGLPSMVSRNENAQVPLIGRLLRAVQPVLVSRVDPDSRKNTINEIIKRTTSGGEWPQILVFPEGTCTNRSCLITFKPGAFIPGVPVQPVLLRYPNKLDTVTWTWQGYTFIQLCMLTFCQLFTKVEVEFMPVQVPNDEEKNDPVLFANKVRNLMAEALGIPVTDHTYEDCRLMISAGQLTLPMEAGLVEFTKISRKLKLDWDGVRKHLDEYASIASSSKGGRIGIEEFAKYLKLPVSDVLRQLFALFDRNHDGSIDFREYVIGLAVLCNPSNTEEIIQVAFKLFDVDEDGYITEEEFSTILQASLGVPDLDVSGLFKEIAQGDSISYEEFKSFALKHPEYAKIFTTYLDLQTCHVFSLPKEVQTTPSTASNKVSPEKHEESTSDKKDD
UniProt Q8N149: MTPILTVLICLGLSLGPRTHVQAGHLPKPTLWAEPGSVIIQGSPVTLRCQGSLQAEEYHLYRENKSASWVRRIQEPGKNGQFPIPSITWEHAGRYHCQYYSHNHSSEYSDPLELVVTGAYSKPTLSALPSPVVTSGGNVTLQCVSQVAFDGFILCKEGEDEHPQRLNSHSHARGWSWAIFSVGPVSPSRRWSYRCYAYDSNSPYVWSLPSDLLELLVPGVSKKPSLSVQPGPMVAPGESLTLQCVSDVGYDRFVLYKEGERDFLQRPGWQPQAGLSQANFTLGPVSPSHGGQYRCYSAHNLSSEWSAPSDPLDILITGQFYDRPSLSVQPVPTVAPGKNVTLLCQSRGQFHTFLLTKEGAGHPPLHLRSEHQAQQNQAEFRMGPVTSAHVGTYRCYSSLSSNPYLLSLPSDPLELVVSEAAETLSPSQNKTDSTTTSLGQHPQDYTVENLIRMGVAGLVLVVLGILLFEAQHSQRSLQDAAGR
UniProt Q8N1G4: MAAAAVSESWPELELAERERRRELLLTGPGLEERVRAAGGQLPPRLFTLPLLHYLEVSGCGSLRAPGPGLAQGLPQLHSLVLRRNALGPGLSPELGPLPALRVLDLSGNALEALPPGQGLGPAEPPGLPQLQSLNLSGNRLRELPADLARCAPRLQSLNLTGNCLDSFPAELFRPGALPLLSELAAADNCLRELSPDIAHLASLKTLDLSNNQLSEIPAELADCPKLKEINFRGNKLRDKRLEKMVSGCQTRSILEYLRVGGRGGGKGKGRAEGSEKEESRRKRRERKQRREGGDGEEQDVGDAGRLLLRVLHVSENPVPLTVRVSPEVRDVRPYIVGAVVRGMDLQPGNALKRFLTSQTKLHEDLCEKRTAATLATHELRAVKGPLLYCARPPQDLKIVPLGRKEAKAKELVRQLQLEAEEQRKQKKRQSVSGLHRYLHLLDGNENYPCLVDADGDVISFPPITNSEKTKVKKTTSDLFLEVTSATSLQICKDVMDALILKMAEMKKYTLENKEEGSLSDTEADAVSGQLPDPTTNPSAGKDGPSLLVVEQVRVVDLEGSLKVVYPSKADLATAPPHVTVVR
UniProt P48059, whole entry, looked up: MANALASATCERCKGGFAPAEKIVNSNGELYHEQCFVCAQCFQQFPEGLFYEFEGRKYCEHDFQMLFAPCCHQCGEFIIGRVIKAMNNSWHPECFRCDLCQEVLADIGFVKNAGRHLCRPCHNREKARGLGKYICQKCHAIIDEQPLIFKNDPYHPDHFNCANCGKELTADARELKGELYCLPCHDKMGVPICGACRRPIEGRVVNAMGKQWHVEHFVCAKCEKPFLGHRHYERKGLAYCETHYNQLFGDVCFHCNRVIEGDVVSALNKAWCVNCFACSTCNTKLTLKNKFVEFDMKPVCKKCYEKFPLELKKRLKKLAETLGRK
UniProt Q15345: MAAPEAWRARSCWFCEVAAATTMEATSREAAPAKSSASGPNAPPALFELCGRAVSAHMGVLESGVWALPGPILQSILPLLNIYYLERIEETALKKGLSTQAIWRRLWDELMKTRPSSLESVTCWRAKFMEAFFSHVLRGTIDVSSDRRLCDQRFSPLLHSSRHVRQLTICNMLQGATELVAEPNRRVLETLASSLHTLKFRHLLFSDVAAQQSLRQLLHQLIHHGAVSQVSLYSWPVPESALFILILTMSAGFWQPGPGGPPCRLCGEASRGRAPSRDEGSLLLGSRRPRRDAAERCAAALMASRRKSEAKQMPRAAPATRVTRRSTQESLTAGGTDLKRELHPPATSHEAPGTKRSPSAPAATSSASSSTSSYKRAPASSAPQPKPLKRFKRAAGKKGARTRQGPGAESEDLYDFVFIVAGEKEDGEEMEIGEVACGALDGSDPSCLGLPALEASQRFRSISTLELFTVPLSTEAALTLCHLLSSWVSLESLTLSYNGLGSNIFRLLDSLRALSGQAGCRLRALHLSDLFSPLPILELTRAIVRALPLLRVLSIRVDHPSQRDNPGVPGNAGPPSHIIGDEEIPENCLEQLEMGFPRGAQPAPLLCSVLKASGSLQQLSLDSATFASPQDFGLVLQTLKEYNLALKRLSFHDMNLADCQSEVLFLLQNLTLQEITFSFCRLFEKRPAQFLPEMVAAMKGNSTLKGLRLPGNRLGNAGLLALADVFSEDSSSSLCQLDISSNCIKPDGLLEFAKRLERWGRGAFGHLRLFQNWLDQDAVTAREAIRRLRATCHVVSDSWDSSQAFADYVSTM
UniProt Q9BT23: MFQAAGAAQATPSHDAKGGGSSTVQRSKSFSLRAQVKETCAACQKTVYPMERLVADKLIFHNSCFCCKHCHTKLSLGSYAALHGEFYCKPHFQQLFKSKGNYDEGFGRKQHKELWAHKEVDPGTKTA
UniProt P09382, whole entry, looked up: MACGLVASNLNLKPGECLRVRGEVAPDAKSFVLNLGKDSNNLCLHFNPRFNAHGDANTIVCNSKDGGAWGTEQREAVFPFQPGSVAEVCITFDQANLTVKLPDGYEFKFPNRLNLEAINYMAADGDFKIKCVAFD
UniProt P18858, whole entry, looked up: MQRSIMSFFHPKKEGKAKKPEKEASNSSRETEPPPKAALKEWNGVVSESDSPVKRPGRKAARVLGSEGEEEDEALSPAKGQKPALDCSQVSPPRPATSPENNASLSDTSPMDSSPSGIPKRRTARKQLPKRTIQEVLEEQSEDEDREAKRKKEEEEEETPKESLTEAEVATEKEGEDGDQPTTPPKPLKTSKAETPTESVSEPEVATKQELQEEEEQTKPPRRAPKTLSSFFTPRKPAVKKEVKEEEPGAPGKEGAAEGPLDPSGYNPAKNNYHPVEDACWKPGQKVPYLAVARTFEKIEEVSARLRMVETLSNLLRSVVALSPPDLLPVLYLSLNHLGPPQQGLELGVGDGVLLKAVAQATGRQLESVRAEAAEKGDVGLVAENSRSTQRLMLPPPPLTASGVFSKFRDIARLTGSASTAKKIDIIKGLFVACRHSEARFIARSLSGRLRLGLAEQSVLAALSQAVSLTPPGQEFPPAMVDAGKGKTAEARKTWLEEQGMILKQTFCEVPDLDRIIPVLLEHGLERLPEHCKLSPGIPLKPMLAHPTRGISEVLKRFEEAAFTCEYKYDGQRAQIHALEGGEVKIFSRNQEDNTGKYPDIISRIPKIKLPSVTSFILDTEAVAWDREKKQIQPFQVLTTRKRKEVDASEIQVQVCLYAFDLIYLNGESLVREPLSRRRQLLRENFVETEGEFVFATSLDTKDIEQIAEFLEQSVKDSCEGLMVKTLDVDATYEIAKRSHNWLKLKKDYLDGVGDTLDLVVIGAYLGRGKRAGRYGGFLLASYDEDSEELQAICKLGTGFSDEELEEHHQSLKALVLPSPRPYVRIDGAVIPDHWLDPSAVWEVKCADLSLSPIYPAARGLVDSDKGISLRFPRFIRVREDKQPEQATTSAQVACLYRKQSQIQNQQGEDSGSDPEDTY

The list shows a part of the results.

Compound in the assay: CC1Cc2ccccc2N1C(=O)C1CCCN(C1)C(=O)CCl (mixture of isomers) [TRIM25 ligand 11 (diastereomer mixture)]
In words: probe-labelled cysteine peptide fold change vs DMSO (competition) (log2 fold change); higher = less target engagement (more negative = stronger competition). Conditions: THP-1, incubation time: 4 h.
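Note: competitive chemoproteomic profiling in live THP-1 cells with an iodoacetamide desthiobiotin (IA-DTB) probe, comparing probe-labelled peptide intensities in compound-treated cells against DMSO-treated controls.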

For the target “LGALS9_O00182_312_GQSFSVWILCEAHCLK (UniProt O00182)”, the “probe-labelled cysteine peptide fold change” value turned out to be 0.145 (10 µM) and 0.157 (50 µM).

Consider “LSS_P48449_471_CPHVTEHIPR (UniProt P48449)”, for which the “probe-labelled cysteine peptide fold change” value (10 µM) came to 0.0381 and the “probe-labelled cysteine peptide fold change” value (50 µM) is -0.0782.

For “LSP1_P33241_36_AEASSDPGAEEREELLGPTAQWSVEDEEEAVHEQCQHER (UniProt P33241)”, the “probe-labelled cysteine peptide fold change” value is, setting by setting: (10 µM) 0.183; (50 µM) 0.233.

Consider “LSM4_Q9Y4Z0_32_NGETYNGHLVSCDNWMNINLR (UniProt Q9Y4Z0)”, for which the “probe-labelled cysteine peptide fold change” value reads like this: (10 µM) -0.114; (50 µM) -0.0668.

“LPP_Q93052_566_IVALDRDFHVHCYR (UniProt Q93052)”: the “probe-labelled cysteine peptide fold change” value by setting is: (10 µM) -0.000226; (50 µM) 0.00613.

On to “LPCAT2_Q7L5N7_223_TTSGGEWPQILVFPEGTCTNR (UniProt Q7L5N7)”, for which the “probe-labelled cysteine peptide fold change” value is, setting by setting: (10 µM) -0.0779; (50 µM) -0.245.

For “LILRA2_Q8N149_49_CQGSLQAEEYHLYR (UniProt Q8N149)”, the “probe-labelled cysteine peptide fold change” value (10 µM) is -0.0373 and the “probe-labelled cysteine peptide fold change” value (50 µM) is -0.0351.

Turning to “LRRC47_Q8N1G4_367_LHEDLCEK (UniProt Q8N1G4)”, the “probe-labelled cysteine peptide fold change” value is, setting by setting: (10 µM) -0.0914; (50 µM) -0.182.

“LIMS1_P48059_240_GLAYCETHYNQLFGDVCFHCNR (UniProt P48059)”: the “probe-labelled cysteine peptide fold change” value is 0.0832 (10 µM) and -0.0685 (50 µM).

Turning to “LRRC41_Q15345_123_TRPSSLESVTCWR (UniProt Q15345)”, the “probe-labelled cysteine peptide fold change” value by setting is: (10 µM) -0.16; (50 µM) 0.158.

In the case of “LIMD2_Q9BT23_43_ETCAACQK (UniProt Q9BT23)”, the “probe-labelled cysteine peptide fold change” value reads like this: (10 µM) 0.141; (50 µM) -0.0114.

In the case of “LGALS1_P09382_43_DSNNLCLHFNPR (UniProt P09382)”, the “probe-labelled cysteine peptide fold change” value is -0.135 (10 µM) and -0.037 (50 µM).

For the target “LIG1_P18858_508_QTFCEVPDLDRIIPVLLEHGLER (UniProt P18858)”, the “probe-labelled cysteine peptide fold change” value is -0.16 (10 µM) and -0.134 (50 µM).

In the case of “LEO1_Q8WVC0_530_ILPMAGRDPECQR (UniProt Q8WVC0)”, the “probe-labelled cysteine peptide fold change” value reads like this: (10 µM) -0.0888; (50 µM) -0.149.
